PubChem BioAssay AID1671190 (National Center for Advancing Translational Sciences (NCATS), 2021)
The whole screen tested about 580,000 compounds, of which about 6,100 (1.1%) were called active. The shares of active, inactive and inconclusive entries below differ from those in the screen. Calls come from the whole dose curve; as a rule, active = well fitted inhibition curve with a large enough effect; inconclusive = small, poorly fitted or top-dose-only effect, or another doubt; inactive = no such curve, though single readings can be large or run the other way. Where the call is inconclusive, the potency comes from a doubtful curve fit.

By UniProt entry, the sequences of proteins in these tests, tags left out. Where a name states a change or a piece, a line headed by the entry shows the natural chain unless it says otherwise.
UniProt P18054: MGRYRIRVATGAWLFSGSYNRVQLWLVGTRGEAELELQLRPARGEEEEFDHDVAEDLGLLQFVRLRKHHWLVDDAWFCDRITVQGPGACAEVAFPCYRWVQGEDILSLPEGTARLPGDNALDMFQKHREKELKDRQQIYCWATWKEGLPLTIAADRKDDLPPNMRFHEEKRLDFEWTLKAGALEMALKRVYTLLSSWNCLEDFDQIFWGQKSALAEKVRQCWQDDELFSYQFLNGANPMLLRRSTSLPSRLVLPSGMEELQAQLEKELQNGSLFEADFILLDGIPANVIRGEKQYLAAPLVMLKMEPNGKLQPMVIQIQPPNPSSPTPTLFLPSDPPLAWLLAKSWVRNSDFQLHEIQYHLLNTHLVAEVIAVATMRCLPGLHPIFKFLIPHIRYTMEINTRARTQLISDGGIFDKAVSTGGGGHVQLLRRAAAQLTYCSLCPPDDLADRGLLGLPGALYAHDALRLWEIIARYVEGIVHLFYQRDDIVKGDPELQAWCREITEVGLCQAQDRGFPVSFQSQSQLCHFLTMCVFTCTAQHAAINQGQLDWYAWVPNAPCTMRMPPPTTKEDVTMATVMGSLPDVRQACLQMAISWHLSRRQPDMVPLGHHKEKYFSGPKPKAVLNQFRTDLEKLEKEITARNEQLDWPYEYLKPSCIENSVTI

Biological target: Polyunsaturated fatty acid lipoxygenase ALOX12 (Homo sapiens) (UniProt P18054)
Experiment: Primary qHTS assay for inhibitors of human arachidonate 12S-lipoxygenase (ALOX12): Round 2
Details: purified 12hLO, xylenol orange hydroperoxide absorbance; activity change, negative = inhibition: at 108 µM (top of the series) unless noted
Outline: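 Hydroperoxide product was detected by ferrous iron/xylenol orange as the 573 to 405 nm absorbance ratio. Arachidonic acid at 40 uM (final) was turned over for 30 min at room temperature by 150 nM human 12hLO, pH 7.0 Hepes buffer, after 15 min compound preincubation.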
% is set by controls: 0 for no effect and ±100 for the full control effect; potency is the fitted concentration of half-maximal effect.

SMILES | activity change, negative = inhibition | Potency
CC(C)(C)OC(=O)N1CC(NCc2cc(F)cc(F)c2)C1 | inactive: 12.4% [at 12.5 µM] | –
COCCN(C(=O)CSc1nn(-c2ccc(F)cc2)c(=S)s1)c1c(N)n(CC(C)C)c(=O)[nH]c1=O | – | inconclusive: 100 µM [inhibitor, single point]
COC(=O)N/N=C/c1ccccc1OCCOc1ccc(OC)cc1 | – | inconclusive: 126 µM [inhibitor, single point]
COC(=O)C1=C(C)NC(C)=C(C(=O)O[C@@H]2CCCN(Cc3ccccc3)C2)[C@@H]1c1cccc([N+](=O)[O-])c1 | – | inconclusive: 35.5 µM [inhibitor, partial curve]
COc1ccc(N2CCN(C(=O)Cc3noc4ccc(C)cc34)CC2)cc1 | – | inconclusive: 100 µM [inhibitor, partial curve, poor fit]
O=[N+]([O-])c1ccc(N/N=C/c2c[nH]c3ccccc23)cc1 | – | inconclusive: 50.1 µM [inhibitor, partial curve, poor fit]
CC(C)(C)C(=O)N1CCC2(CC1)CCN(Cc1cccs1)c1ccccc1O2 | – | inconclusive: 70.8 µM [inhibitor, partial curve]
O=C(CCN1CCCCO1)NC1CCCc2c1cnn2-c1ccc(F)cc1F (stereo not given) | – | inconclusive: 56.2 µM [inhibitor, partial curve, poor fit]
COCCn1ccnc1C1CCN(C(=O)c2ccc3n[nH]nc3c2)CC1 | inactive: 82.9% | –
Clc1cccnc1SCc1cc(Cl)c2c(c1)OCCO2 | – | inconclusive: 0.199 µM [inhibitor, full curve, poor fit]
COc1ccc(N2CCN(C(=O)c3ccc(F)cc3)CC2)c([N+](=O)[O-])c1 | inactive: 0% | –
Cc1cc(Br)ccc1NC(=O)CNC(=O)c1cc(=O)c2ccccc2o1 | – | inconclusive: 70.8 µM [inhibitor, partial curve, poor fit]
CCc1ccc(NC(=O)Cn2ccn(-c3cccc(Cl)c3)c(=O)c2=O)cc1 | – | inconclusive: 50.1 µM [inhibitor, partial curve, poor fit]
O=C(CN1C2=NCCCN2c2ccccc21)c1cccs1 | inactive: 73.1% | –
Cc1ccc(C(C#N)=Cc2ccc3c(c2)OCO3)cc1 | inactive: -24.9% | –
CC(=O)c1cccc(NC(=O)Cc2csc(-n3nc(C)c(Cc4ccccc4)c3C)n2)c1 | inactive: -10.5% | –
Cc1cc(Nc2ccc(F)cc2Cl)n2ncnc2n1 | – | inconclusive: 5.01 µM [inhibitor, partial curve, poor fit]
Cc1ccnc(NC(=O)c2cccs2)c1 | – | inconclusive: 39.8 µM [inhibitor, partial curve, poor fit]
COC(=O)c1ccc(CSc2nc3cc(Cl)ccc3o2)cc1 | – | inconclusive: 28.2 µM [inhibitor, single point]
COc1ccc(-c2cc(C(=O)NC3CCN(C)CC3)c3ccccc3n2)cc1OC | – | inconclusive: 50.1 µM [inhibitor, single point]
COc1ccc(/C=C/c2nc(C#N)c(NC3CCCCC3)o2)cc1OC | – | inactive
O=C(NC1CCCCC1)C(C1CC1)n1c(=O)c(-c2ccccc2)nc2ccccc21 (stereo not given) | – | inconclusive: 39.8 µM [inhibitor, single point]
CCN(CC)c1ccc(S(=O)(=O)N2CCOCC2)cc1NC(=O)COC(=O)c1cccnc1SC | inactive: -9.02% | –
O=C(CCS(=O)(=O)c1cc2c3c(c1)CCN3C(=O)CC2)NCc1ccc(Cl)cc1 | inactive: -7.9% | –

Quoted at random: 6 entries already listed, in no set order.
SMILES | activity change, negative = inhibition | Potency
COC(=O)C1=C(C)NC(C)=C(C(=O)O[C@@H]2CCCN(Cc3ccccc3)C2)[C@@H]1c1cccc([N+](=O)[O-])c1 | – | inconclusive: 35.5 µM [inhibitor, partial curve]
COCCN(C(=O)CSc1nn(-c2ccc(F)cc2)c(=S)s1)c1c(N)n(CC(C)C)c(=O)[nH]c1=O | – | inconclusive: 100 µM [inhibitor, single point]
CC(C)(C)C(=O)N1CCC2(CC1)CCN(Cc1cccs1)c1ccccc1O2 | – | inconclusive: 70.8 µM [inhibitor, partial curve]
Cc1cc(Nc2ccc(F)cc2Cl)n2ncnc2n1 | – | inconclusive: 5.01 µM [inhibitor, partial curve, poor fit]
O=C(NC1CCCCC1)C(C1CC1)n1c(=O)c(-c2ccccc2)nc2ccccc21 (stereo not given) | – | inconclusive: 39.8 µM [inhibitor, single point]
Cc1ccnc(NC(=O)c2cccs2)c1 | – | inconclusive: 39.8 µM [inhibitor, partial curve, poor fit]

Further results follow.

SMILES | activity change, negative = inhibition | Potency
Cc1oc2c(O)c(O)ccc2c(=O)c1-c1ccccc1 | – | inconclusive: 3.98 µM [inhibitor, full curve, poor fit]
CC(Nc1nc(-c2ccc3c(c2)NC(=O)CO3)cs1)c1ccccc1 (stereo not given) | – | inconclusive: 50.1 µM [inhibitor, partial curve, poor fit]
Cn1c(CCC(=O)Nc2cc(S(C)(=O)=O)ccc2Cl)nc2cc(S(=O)(=O)N3CCOCC3)ccc21 | – | active: 44.7 µM
Cn1c(C(=O)N2CCN(Cc3ccc4c(c3)OCO4)CC2)cc2c(=O)n(C)c3ccccc3c21 | – | inconclusive: 35.5 µM [inhibitor, single point]
O=C1NC(c2ccc(Cl)c([N+](=O)[O-])c2)Nc2ccccc21 (stereo not given) | – | inconclusive: 63.1 µM [inhibitor, partial curve, poor fit]
COc1cc(C(=O)CSc2nncn2C)cc(OC)c1OC | – | inconclusive: 50.1 µM [inhibitor, partial curve, poor fit]
Cc1cc(N)n(-c2ccccn2)n1 | – | inconclusive: 112 µM [inhibitor, single point]
CCOC(=O)C1=C(CN2CCN(c3ccccc3F)CC2)NC(=O)NC1c1ccc(OC)cc1 (stereo not given) | – | inconclusive: 112 µM [inhibitor, single point]
CSC1=C(C#N)C(c2ccccc2Cl)C(C(=O)c2cccs2)C(O)(C(F)(F)F)N1 (stereo not given) | inactive: -19.7% | –
CCc1cccc(C)c1Nc1c(-c2cccc(O)c2)nc2cnccn12 | – | inconclusive: 126 µM [inhibitor, partial curve, poor fit]
O=S(=O)(NC1CC2CCC1C2)c1ccc(Br)cc1 (stereo not given) | – | inconclusive: 89.1 µM [inhibitor, single point]
COC(=O)c1sc(SC)c(S(=O)(=O)C(C)C)c1N/N=C(\C#N)C(=O)c1ccccc1 | – | inconclusive: 89.1 µM [inhibitor, single point]
Brc1ccc(CN2CCC(c3nc4ncccc4[nH]3)C2)cc1 (stereo not given) | – | inconclusive: 17.8 µM [inhibitor, partial curve]
O=C(CCC1NC(=O)c2ccccc2NC1=O)NC1CCCCCC1 (stereo not given) | inactive: -0.849% | –
CC(C(=O)NCCO)c1ccc2c(c1)[nH]c1ccc(Cl)cc12 (stereo not given) | – | inconclusive: 44.7 µM [inhibitor, partial curve, poor fit]
CC1=NN(c2cc(C)[nH]n2)C(c2ccccc2)C1 (stereo not given) | – | inconclusive: 31.6 µM [inhibitor, partial curve, poor fit]
S=C(Nc1ccc(Oc2ccc(NC(=S)NC3CCCCC3)cc2)cc1)NC1CCCCC1 | – | active: 11.2 µM
CSc1ccc(S(=O)(=O)NCc2ccc(C)cc2)cc1 | inactive: 5.46% | –
CCN(CC)CCNC(=O)c1ccc(NC(=O)Cc2cccc3ccccc23)cc1 | inactive: -27.4% | –
CSc1ccc(CNc2cccc(C(=O)O)c2C)cc1 | inactive: 31.6% | –
Cn1c(=O)n(Cc2ccccc2)c(=O)c2c1nc1n2CCCN1CCc1ccccc1 | inactive: 5.7% | –
CC(Sc1nc2ccccc2n1C)C(=O)NCc1ccc(Cl)cc1 (stereo not given) | inactive: 1.61% | –
O=C(C(=O)N1CCN(c2cccc(Cl)c2)CC1)c1c[nH]c2ccccc12 | – | inconclusive: 44.7 µM [inhibitor, partial curve, poor fit]
CN1CCC2(Cc3ccccc3CN([S+](C)(=O)[O-])C2)C1 (stereo not given) | inactive: 6.09% [at 12.5 µM] | –

SMILES | activity change, negative = inhibition | Potency
COc1ccc(Cl)cc1C(C)=O | inactive: 19.7% | –
O=C(COC(=O)c1ccccc1Oc1ccccc1)NCc1ccco1 | – | inconclusive: 50.1 µM [inhibitor, partial curve, poor fit]
CCCNC(=O)c1cc2c(c(-c3cccc(-c4ccc(C#N)cc4)c3)n1)[C@@H](CCO)N(C(=O)CC)C2 | – | inconclusive: 44.7 µM [inhibitor, partial curve, poor fit]
COCCn1cc(C(=O)N2CCC(C)CC2)c2c3ccccc3n(C)c2c1=O | inactive: -2.48% | –
O=C(Cn1ccn2nc(-c3ccccc3)c(CO)c2c1=O)Nc1cc(F)cc(F)c1 | – | inconclusive: 35.5 µM [inhibitor, partial curve]
CC(C)c1nn2c(=O)cc(COC(=O)c3ccccc3NC(=O)c3cccs3)nc2s1 | inactive: -17.4% | –
CCn1cc(-c2ccnc3cc(C(=O)O)nn23)c(C)n1 | – | inconclusive: 63.1 µM [inhibitor, partial curve, poor fit]
Cc1ccc(C(=O)Nc2nc3ccccc3[nH]2)cc1 | inactive: 5.84% | –
CCOC(=O)c1ccc(-n2c(CCC(=O)O)ccc2-c2cccs2)cc1 | inactive: -28.3% | –
Cc1ccc(-n2c(SCC(=O)NC3CCS(=O)(=O)C3)nc3ccccc3c2=O)c(C)c1 (stereo not given) | inactive: 8.95% | –
COc1cccc(-n2c(SCC(=O)N3CCc4ccccc43)nnc2-c2c[nH]c3ccccc23)c1 | inactive: 15.6% | –
O=c1/c(=C\c2ccc3c(c2)OCO3)sc2n1CCCN=2 | – | inconclusive: 50.1 µM [inhibitor, partial curve, poor fit]
C/C(=N\NC(=O)c1ccco1)c1cccc2ccccc12 | – | inconclusive: 39.8 µM [inhibitor, full curve, poor fit]
CC1CCCN(c2csc3ccccc3c2=O)C1 (stereo not given) | – | inconclusive: 89.1 µM [inhibitor, partial curve, poor fit]
CC(C)(C)c1ccc(OCC(O)CSc2ncn[nH]2)cc1 (stereo not given) | inactive: 9.23% | –
COc1cccc(C2CCCCN2Cc2nc(CCc3ccccc3)no2)c1 (stereo not given) | inactive: -11% | –
Cc1ccc(-c2cc(C)c(-c3ccc(C)cc3)nn2)cc1 | – | inconclusive: 20 µM [inhibitor, full curve, poor fit]
Cc1ccc(C(=O)OCC(=O)OC2CC(C)CCC2C(C)C)s1 (stereo not given) | – | inconclusive: 44.7 µM [inhibitor, partial curve, poor fit]
CCCCN1C(=O)c2ccc(C(=O)OCc3csc(Nc4ccc(C)cc4)n3)cc2C1=O | – | inconclusive: 44.7 µM [inhibitor, partial curve, poor fit]
CCCSC1=C(C#N)C(c2ccccc2C)CC(=O)N1 (stereo not given) | – | inconclusive: 50.1 µM [inhibitor, partial curve, poor fit]
CCOC(=O)C1CCN(CCC(=O)Nc2ccccc2Cl)CC1 | – | inactive
O=C(O)CCCC1OC(CCCC(=O)O)OC(CCCC(=O)O)O1 (stereo not given) | – | inconclusive: 0.355 µM [inhibitor, full curve, poor fit]
